# According to article PMC8848768 (Chemical Science, 2022):
# Assay: general procedure: solution-phase peptide synthesis; EDC•HCl, HOBt
Substance,step yield (late stage modification step) [%],step yield (coupling step) [%]
"(2R,3S)-2-Acetamido-N -((4S,10S,13R,16R,22S,25R)-26-hydroxy-22-(2-hydroxypropan-2-yl)-4,10,13-triisopropyl-2,16,26-trimethyl-6,9,12,15,18,21,24-heptaoxo-7,19-di(propan-2-ylidene)-2,5,8,11,14,17,20,23-octaazaheptacosan-25-yl)-3-methylpentanamide",80,
"Methyl (2-(2-(2-((2S ,3R)-2-((tert-Butoxycarbonyl)amino)-3-methyl-3-((triethylsilyl)oxy)pentanamido)-3-ethylpent-2-enamido)acetamido)-3-methylbut-2-enoyl)-D-valinate",,47
"Methyl (2-(2-(2-((2S ,3R)-2-((tert-Butoxycarbonyl)amino)-3-methyl-3-((triethylsilyl)oxy)pentanamido)-3-methylbut-2-enamido)acetamido)-3-ethylpent-2-enoyl)-D-valinate",,32
"tert-Butyl ((4S ,10S,13R,16R,22S)-25,25-Diethyl-4,10,13-triisopropyl-2,16,23,23-tetramethyl-6,9,12,15,18,21-hexaoxo-7,19-di(propan-2-ylidene)-24-oxa-2,5,8,11,14,17,20-heptaaza-25-silaheptacosan-22-yl)carbamate",,95
"tert-Butyl ((7R,13S ,16R ,19R,20S )-13,16-Bis(2-hydroxypropan-2-yl)-2,7,20-trimethyl-6,9,12,15,18-pentaoxo-10-(propan-2-ylidene)-2,5,8,11,14,17-hexaazadocosan-19-yl)carbamate",,78
